The exact form of at least one protein or probe is not confirmed. For some assays here: Weaker means in comparison with the reference protein, sequence or condition of that experiment. For some assays here: At least one verdict was read from the data and is not stated in words by the source.
Key:
[1] = tested on: POLE1 (Pol epsilon catalytic subunit) + POLE2 + POLE3 + POLE4; assay: EMSA; details: EMSA: 30 nM DNA, 30-120 nM protein, protein dilution buffer 25 mM Hepes pH 7.5, 100 mM NaCl, 10% glycerol, 0.5 mM EDTA, 1 mM DTT, 0.01% NP-40, recombinant protein, protein details: N-terminal streptavidin tag
[2] = tested on: POLE1 (Pol epsilon catalytic subunit) + POLE2; assay: EMSA; details: EMSA: 30 nM DNA, 30-120 nM protein, protein dilution buffer 25 mM Hepes pH 7.5, 100 mM NaCl, 10% glycerol, 0.5 mM EDTA, 1 mM DTT, 0.01% NP-40, recombinant protein, protein details: N-terminal streptavidin tag, label: 5' 6FAM on strand 1

Chains of the proteins cited; added tags and fusions are not shown. A line that says so, or that is headed by a name, gives the form on record, which may keep a tag or linker.
POLE1 (Pol epsilon catalytic subunit) + POLE2 + POLE3 + POLE4, one chain, as listed by the source, chain 4 of 4: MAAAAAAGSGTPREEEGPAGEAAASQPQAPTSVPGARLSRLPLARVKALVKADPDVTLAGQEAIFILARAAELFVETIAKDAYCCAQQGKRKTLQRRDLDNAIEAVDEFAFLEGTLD

| Sequence | binding result ([1]; label: 5' 6FAM on strand 1) | binding result ([2]; without POLE3-POLE4, almost completely unable to bind) | binding result ([2]; without POLE3-POLE4, double shifted band) | binding result ([1]; label: 5' 6FAM, single-stranded DNA) |
| --- | --- | --- | --- | --- |
| AGCTACCATGCCTGCACGAATTAAGCAATTCGTAATCATGGTCATAGCT (double strand) [EMSA dsDNA 49 bp] | binds | binds more weakly | – | – |
| AGCTACCATGCCTGCACGAATTAAGCAATTCGTAATCATGGTCATAGCT / CTACAGTTCGTCAGGATTCC / AGCTATGACCATGATTACGAATTGCTTGGAATCCTGACGAACTGTAG [EMSA leading strand fork] | binds | – | binds more weakly | – |
| AGCTACCATGCCTGCACGAATTAAGCAATTCGTAATCATGGTCATAGCT [EMSA ssDNA 49-mer] | – | – | – | binds |

Reference: publication PMC12796321
